PubChem BioAssay AID1159578 | Peter MacCallum Cancer Centre | 2015

Assay: 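Knock-downs that alter how fast lymphatic endothelial cells migrate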 (primary screen)
Cells: human lymphatic endothelial cells
Reagents: siRNA pool against human genes, 40 nM
Time to read-out: 48 h after transfection
Measurement: 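High-content imaging of dye-stained cells in a scratch assay measures filled wound area and nuclei per well; duplicate means given as ratio to mock and robust z-score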
Reading the numbers: migration robust z-score: higher = faster migration into the scratch; nuclei per well: higher = more cells in the well
Call rule: 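Migration changed when robust z exceeds 2 or falls below -2 and mean nuclei number is at least 3300; otherwise not called changed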
Meaning of the calls: active = migration changed; inactive = no migration change, or too few cells
The deposit covers about 18,000 reagents; shown is a random part of them. About 1,030 of them (5.7%) count as active. 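Inactive calls also include pools with fewer than 3300 nuclei, whose migration was not assessed.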 Raw values are not corrected between plates. Not all columns of the deposit are shown. No sequences are given here.

target gene	migration robust z-score	nuclei per well, duplicate mean	Outcome
MESD	-0.01	5773	inactive
SCIMP	1.48	6194	inactive
KAT2A	-0.83	5576	inactive
SND1-IT1	1.29	6653	inactive
TTC17	-1.48	4678	inactive
CD83	0.18	6446	inactive
OR5H2	0.78	5294	inactive
GCNA	0.6	5100	inactive
SERPINA4	-2.34	4240	active
ECI1	-1.45	4928	inactive
SFXN2	-0.31	5584	inactive
CCDC85A	-0.12	5924	inactive
ZNF572	0.88	5815	inactive
PHIP	-1.13	5145	inactive
ATG4C	1.92	5604	inactive
TAS2R19	1.17	5543	inactive
KCNH4	-0.52	4387	inactive
RASGEF1B	1.68	6540	inactive
DUT	0.23	5744	inactive
SLAMF6	0.26	5616	inactive
LYPLA1	0.7	4867	inactive
GTF2E2	-0.05	5966	inactive
ZNF438	-1.61	5974	inactive
TLR2	0.96	6848	inactive
ACSS2	1.72	6794	inactive
ZBED4	-1.22	5913	inactive
ASF1B	-0.96	7764	inactive
KIAA1217	0.2	6288	inactive
CAMSAP3	0.21	6148	inactive
C16orf46	0.54	5964	inactive
IFT56	2.5	6448	active
ANP32CP	-0.53	7290	inactive
RNF14	1.3	6442	inactive
TNNI2	0.76	5458	inactive
UPRT	0.08	5603	inactive
SPCS3	-0.13	5227	inactive
SEMA4G	0.18	4970	inactive
GEMIN6	0.06	5234	inactive
ANAPC10	-0.31	6493	inactive
SLC10A4	-0.44	5264	inactive
KBTBD11	0.39	5782	inactive
BACE1	-0.62	6064	inactive
COX16	0.94	5009	inactive
INPP5B	-1.03	4494	inactive
MTIF3	0	5978	inactive
CKM	-3.04	5234	active
SAGE1	0.12	5714	inactive
CSF2RB	1.82	6634	inactive
TOB1	0.16	5028	inactive
PTH2R	0.91	5468	inactive
HERC5	-0.42	5416	inactive
EVX1	0.44	5544	inactive
WDSUB1	0.96	5966	inactive
LBHD1	-1.38	5815	inactive
UGT2B11	0.32	5562	inactive
PCSK2	-0.1	4496	inactive
TCERG1	0.42	3196	inactive
ZNF280B	0.31	4718	inactive
ARSH	0.11	5763	inactive
HOPX	-0.24	4853	inactive
OR7E24	1.69	6238	inactive
PUS1	-0.54	5700	inactive
TMEM214	-0.52	6004	inactive
PDCD6IP	-1.05	6480	inactive
SNRNP200	-0.5	5438	inactive
GAST	-1.48	4858	inactive
KLHL21	1.56	5642	inactive
IBSP	-1.01	2884	inactive
TEPSIN	2.3	5548	active
SDR16C5	0.42	5960	inactive
MED8	-0.34	5096	inactive
SLC9A5	1.35	6232	inactive
SIGIRR	1.16	5322	inactive

10 of these entries in another layout:
target gene,migration robust z-score,"nuclei per well, duplicate mean",Outcome
CAMSAP3,0.21,6148,inactive
C16orf46,0.54,5964,inactive
IFT56,2.5,6448,active
ANP32CP,-0.53,7290,inactive
RNF14,1.3,6442,inactive
TNNI2,0.76,5458,inactive
UPRT,0.08,5603,inactive
SPCS3,-0.13,5227,inactive
SEMA4G,0.18,4970,inactive
GEMIN6,0.06,5234,inactive
